What all share (test): affinity purification with mass spectrometry; PtA-tagged bait stably expressed in Drosophila cells (about 10^9 cells); extraction buffer 50 mM HEPES pH 7.5, 100 mM KAc, 50 mM KCl, 2 mM MgCl2, 2 mM EGTA, 0.1% NP-40, 5 mM DTT, 5% glycerol; rabbit IgG Dynabeads 4 h at 4°C; eluate analysed by LC-MS/MS
One test addresses T1, PtA::Shrb (Drosophila) (UniProt Q8T0Q4).
T1 sequence: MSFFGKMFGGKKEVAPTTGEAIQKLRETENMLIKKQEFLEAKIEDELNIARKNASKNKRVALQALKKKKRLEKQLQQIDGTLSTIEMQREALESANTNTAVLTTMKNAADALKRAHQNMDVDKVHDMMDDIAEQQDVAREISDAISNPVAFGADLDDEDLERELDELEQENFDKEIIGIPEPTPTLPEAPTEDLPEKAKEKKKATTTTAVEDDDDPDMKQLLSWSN

Sequences of proteins named here, by UniProt entry; tags and fusion partners are left off. A change or cut given only in a name is not applied to a line headed by its entry.
UniProt Q9VEM2: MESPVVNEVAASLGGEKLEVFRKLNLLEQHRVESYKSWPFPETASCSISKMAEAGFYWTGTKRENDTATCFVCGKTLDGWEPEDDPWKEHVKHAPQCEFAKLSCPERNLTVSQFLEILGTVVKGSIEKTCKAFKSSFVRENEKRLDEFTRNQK

The target in the next test is T2, Borr::PtA (Drosophila) (UniProt Q9VLD6).
T2 sequence: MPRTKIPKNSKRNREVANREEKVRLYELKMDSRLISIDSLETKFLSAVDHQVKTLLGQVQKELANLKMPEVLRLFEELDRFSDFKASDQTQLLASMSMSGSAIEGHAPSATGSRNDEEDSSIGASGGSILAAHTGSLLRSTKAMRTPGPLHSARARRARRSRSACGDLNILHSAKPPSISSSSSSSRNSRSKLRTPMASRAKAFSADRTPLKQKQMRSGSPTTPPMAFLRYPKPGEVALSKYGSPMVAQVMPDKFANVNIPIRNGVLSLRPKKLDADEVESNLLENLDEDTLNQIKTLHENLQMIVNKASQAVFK

A further test deals with T3, PtA::Borr (Drosophila) (UniProt Q9VLD6).
T3 sequence: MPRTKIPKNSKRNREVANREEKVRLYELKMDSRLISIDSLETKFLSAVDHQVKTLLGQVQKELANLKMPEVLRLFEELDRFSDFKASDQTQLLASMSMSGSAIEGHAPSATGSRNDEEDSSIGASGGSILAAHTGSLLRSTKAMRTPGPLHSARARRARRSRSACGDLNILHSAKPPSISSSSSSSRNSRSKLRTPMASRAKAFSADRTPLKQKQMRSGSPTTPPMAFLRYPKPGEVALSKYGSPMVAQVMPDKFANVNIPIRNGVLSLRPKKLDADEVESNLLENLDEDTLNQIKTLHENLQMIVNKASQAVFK

For test [1], the target named is T4, Borr::PtA (Drosophila), Q9VLD6.
T4 chain: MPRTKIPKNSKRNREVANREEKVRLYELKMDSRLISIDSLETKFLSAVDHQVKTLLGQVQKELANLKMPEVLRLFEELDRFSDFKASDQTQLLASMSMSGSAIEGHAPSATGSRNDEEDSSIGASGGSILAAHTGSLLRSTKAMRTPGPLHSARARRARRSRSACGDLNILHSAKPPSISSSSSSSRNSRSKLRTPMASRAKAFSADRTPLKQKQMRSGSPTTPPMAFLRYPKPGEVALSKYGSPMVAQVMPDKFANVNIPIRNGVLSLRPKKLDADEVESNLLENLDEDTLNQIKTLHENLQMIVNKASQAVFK
Conditions: remark: other sources report otherwise.

Test [2] addresses T5, PtA::Borr (Drosophila), Q9VLD6.
T5 chain: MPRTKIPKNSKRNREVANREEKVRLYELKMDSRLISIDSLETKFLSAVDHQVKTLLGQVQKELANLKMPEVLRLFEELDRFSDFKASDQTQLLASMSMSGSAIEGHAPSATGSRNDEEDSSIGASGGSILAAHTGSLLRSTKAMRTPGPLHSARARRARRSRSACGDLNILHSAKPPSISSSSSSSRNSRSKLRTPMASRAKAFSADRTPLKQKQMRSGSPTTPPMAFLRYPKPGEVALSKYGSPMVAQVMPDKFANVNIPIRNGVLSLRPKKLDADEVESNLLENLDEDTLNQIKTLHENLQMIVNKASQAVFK
As to conditions: remark: other sources report otherwise.

Results are given in words; binding and its absence hold for the method and conditions named. Binding seen in cells or lysates may run through a third protein. Here binding means that the protein was enriched with, or labelled near, the bait; the list need not be complete.

With “Deterin (Survivin) (from UniProt Q9VEM2)”, the binding entry in the test with PtA::Shrb (Drosophila), with Borr::PtA (Drosophila) and with PtA::Borr (Drosophila) was “binds” each time.

On to “INCENP (Drosophila (endogenous in Dmel S2 cells))”, for which the binding result with Borr::PtA (Drosophila) and in the test with PtA::Borr (Drosophila) was “binds” each time.

B1: Borr (protein, UniProt Q9VLD6 1-315)
chain: MPRTKIPKNSKRNREVANREEKVRLYELKMDSRLISIDSLETKFLSAVDHQVKTLLGQVQKELANLKMPEVLRLFEELDRFSDFKASDQTQLLASMSMSGSAIEGHAPSATGSRNDEEDSSIGASGGSILAAHTGSLLRSTKAMRTPGPLHSARARRARRSRSACGDLNILHSAKPPSISSSSSSSRNSRSKLRTPMASRAKAFSADRTPLKQKQMRSGSPTTPPMAFLRYPKPGEVALSKYGSPMVAQVMPDKFANVNIPIRNGVLSLRPKKLDADEVESNLLENLDEDTLNQIKTLHENLQMIVNKASQAVFK
For the molecule B1, the binding entry with PtA::Shrb (Drosophila) is “binds”.

B2: Aurora B, Q9VKN7 1-329 (enzyme)
chain: MTLSRAKHANRNHLPHLLAKVPEEHQEPIKNMCLKMMSHDAYGQPYDWSPRDFEMGAHLGRGKFGRVYLARERHSHYLVAMKVMFKEELRKGCVQRQVLREIEIQSRLKHPHILRLLTWFHDESRIYLALEIASEGELFKHLRGAPNHRFDEPRSAKYTYQVANALNYCHLNNVIHRDLKPENILLTSTDDLKLADFGWSAHTPNNKRRTLCGTLDYLPPEMVDGNSYDDSVDQWCLGILCYEFVVGCPPFESNSTESTYSKIRRMEISYPSHLSKGCKELIGGLLRKESKGRITLVDVMTHYWVKAGMAERELQLQKRERGKENTARN
For the molecule B2, the binding entry in test [1] and in test [2] was “binds” each time.

B3: Shrb (Snf7) (protein, UniProt Q8T0Q4 1-226)
chain: MSFFGKMFGGKKEVAPTTGEAIQKLRETENMLIKKQEFLEAKIEDELNIARKNASKNKRVALQALKKKKRLEKQLQQIDGTLSTIEMQREALESANTNTAVLTTMKNAADALKRAHQNMDVDKVHDMMDDIAEQQDVAREISDAISNPVAFGADLDDEDLERELDELEQENFDKEIIGIPEPTPTLPEAPTEDLPEKAKEKKKATTTTAVEDDDDPDMKQLLSWSN
On to B3, for which the binding result with Borr::PtA (Drosophila) and with PtA::Borr (Drosophila) was “binds” in each case.

Source of the values: PMC3376741.
